Data reported in article PMC2994903.
These are yes or no findings as the source states them, for the method shown. For some assays here: In cells and extracts the contact can be indirect. Some entries that bind do so weakly or less than the wild type. For some assays here: Sequences can lack the tags named with a protein.

Sequences of proteins named here, by UniProt entry; tags and fusion partners are left off.
UniProt Q9UI95: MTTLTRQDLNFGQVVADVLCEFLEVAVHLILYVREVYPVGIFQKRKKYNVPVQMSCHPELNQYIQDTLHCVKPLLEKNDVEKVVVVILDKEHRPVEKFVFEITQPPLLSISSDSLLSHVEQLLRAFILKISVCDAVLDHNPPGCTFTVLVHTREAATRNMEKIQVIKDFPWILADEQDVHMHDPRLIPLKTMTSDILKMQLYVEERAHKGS
UniProt Q00610: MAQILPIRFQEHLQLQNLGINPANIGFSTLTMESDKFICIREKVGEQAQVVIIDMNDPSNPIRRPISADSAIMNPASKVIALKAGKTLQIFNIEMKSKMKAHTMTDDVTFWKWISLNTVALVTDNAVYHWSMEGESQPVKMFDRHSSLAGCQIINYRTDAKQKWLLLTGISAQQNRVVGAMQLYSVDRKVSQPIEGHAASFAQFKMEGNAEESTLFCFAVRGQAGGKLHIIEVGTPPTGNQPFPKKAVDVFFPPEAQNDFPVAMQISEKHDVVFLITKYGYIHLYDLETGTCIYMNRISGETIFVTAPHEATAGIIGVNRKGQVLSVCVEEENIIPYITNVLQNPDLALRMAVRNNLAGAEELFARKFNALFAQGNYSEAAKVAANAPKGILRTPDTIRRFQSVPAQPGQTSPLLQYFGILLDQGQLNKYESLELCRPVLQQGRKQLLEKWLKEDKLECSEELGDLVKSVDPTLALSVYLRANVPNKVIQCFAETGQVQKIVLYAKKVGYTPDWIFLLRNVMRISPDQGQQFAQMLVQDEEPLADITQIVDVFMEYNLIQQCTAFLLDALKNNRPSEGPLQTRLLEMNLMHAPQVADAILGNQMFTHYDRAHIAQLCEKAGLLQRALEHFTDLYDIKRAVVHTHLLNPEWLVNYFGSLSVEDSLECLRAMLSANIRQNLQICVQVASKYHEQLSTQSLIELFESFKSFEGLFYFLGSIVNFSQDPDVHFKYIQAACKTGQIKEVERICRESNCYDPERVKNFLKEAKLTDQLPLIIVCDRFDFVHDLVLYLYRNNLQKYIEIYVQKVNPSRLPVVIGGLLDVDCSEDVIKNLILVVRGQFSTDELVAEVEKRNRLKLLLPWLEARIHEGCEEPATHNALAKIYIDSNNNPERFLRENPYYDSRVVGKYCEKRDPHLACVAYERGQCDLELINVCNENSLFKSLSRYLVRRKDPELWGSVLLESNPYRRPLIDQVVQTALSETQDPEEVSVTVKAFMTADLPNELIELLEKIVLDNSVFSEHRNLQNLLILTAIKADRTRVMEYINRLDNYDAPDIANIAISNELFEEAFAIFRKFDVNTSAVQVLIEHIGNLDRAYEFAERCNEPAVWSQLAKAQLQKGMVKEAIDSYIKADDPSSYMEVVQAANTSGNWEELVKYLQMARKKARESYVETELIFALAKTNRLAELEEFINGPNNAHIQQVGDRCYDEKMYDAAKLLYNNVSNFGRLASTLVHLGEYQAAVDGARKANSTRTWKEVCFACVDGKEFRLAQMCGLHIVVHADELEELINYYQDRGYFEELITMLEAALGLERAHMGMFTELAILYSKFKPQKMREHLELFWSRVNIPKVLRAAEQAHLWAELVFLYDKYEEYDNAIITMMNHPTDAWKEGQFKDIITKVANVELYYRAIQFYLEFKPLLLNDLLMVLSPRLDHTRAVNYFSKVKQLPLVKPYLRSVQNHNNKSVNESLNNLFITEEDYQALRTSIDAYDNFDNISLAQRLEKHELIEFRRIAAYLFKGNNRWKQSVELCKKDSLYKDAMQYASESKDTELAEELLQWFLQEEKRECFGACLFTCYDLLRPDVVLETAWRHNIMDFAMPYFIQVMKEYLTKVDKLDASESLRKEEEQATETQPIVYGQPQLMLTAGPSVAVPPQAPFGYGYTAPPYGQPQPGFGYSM

Assays:
[1] = target: T1, GST-CLTA fusion protein, full length (human) (UniProt P09496); test: pull-down; GST-CLTA or GST on glutathione Sepharose 4B, incubated overnight at 4°C with lysates of U2OS cells expressing HA-MAD2B; washes with 150 mM or 100 mM NaCl and Triton X-100; western blot; only the target purified
T1 sequence: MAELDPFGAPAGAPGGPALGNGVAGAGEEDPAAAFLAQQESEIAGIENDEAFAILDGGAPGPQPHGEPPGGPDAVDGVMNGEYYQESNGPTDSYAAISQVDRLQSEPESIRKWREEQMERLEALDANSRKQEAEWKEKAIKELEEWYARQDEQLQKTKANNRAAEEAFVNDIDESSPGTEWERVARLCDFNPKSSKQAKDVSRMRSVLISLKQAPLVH

[2] = target: endogenous MAD2B (human (endogenous in U2OS)) (UniProt Q9UI95); test: co-IP; whole cell lysates of U2OS cells labelled with 35S methionine; IP with anti-MAD2B, anti-CLTA or control IgG; labelled bands on gel
[3] = target: mitotic arrest deficient protein MAD2B, full coding sequence, two-hybrid bait (human) (UniProt Q9UI95); test: two-hybrid; screen of a human testis cDNA library (pAD-GAL4) with MAD2B bait (pBDT3C) in yeast pJ69-4A; growth on SD -HALW, LacZ filter lift; retransformation of the clones with bait and control plasmids
[4] = target: HA-tagged MAD2B, full-length (human) (UniProt Q9UI95); test: co-IP; U2OS cells transiently transfected with HA-MAD2B and FLAG-CLTA; IP with anti-MAD2B antibody or control rabbit IgG, blot with anti-FLAG; lysis buffer PBS, 10% glycerol, 0.1% NP40

Q: How did the binding [1] turn out when “HA-tagged MAD2B, full-length (from UniProt Q9UI95 1-211)” was run?
A: binds

Q: “endogenous clathrin heavy chain (CLTC) (from UniProt Q00610 1-1675)” was tested. Which binding [2] did it give?
A: binds

B1: clathrin light chain A (CLTA), full-length, two-hybrid prey (protein, UniProt P09496-2 1-218)
chain: MAELDPFGAPAGAPGGPALGNGVAGAGEEDPAAAFLAQQESEIAGIENDEAFAILDGGAPGPQPHGEPPGGPDAVDGVMNGEYYQESNGPTDSYAAISQVDRLQSEPESIRKWREEQMERLEALDANSRKQEAEWKEKAIKELEEWYARQDEQLQKTKANNRAAEEAFVNDIDESSPGTEWERVARLCDFNPKSSKQAKDVSRMRSVLISLKQAPLVH
Q: With B1 as the molecule, how does the binding [3] read?
A: binds

B2: CLTA library clone coding for the C-terminal 100 amino acids, two-hybrid prey (domain or fragment, UniProt P09496-2 119-218)
chain: ERLEALDANSRKQEAEWKEKAIKELEEWYARQDEQLQKTKANNRAAEEAFVNDIDESSPGTEWERVARLCDFNPKSSKQAKDVSRMRSVLISLKQAPLVH
Q: With B2 as the molecule, how does the binding [3] read?
A: binds

B3: FLAG-tagged CLTA, full length (protein, UniProt P09496-2 1-218)
chain: MAELDPFGAPAGAPGGPALGNGVAGAGEEDPAAAFLAQQESEIAGIENDEAFAILDGGAPGPQPHGEPPGGPDAVDGVMNGEYYQESNGPTDSYAAISQVDRLQSEPESIRKWREEQMERLEALDANSRKQEAEWKEKAIKELEEWYARQDEQLQKTKANNRAAEEAFVNDIDESSPGTEWERVARLCDFNPKSSKQAKDVSRMRSVLISLKQAPLVH
Q: For B3, which binding [4] is on record?
A: binds
